Measured values: article PMC5185470 (Bioorganic & medicinal chemistry letters, 2016)

The chains behind the UniProt entries cited, without tags or fusion partners. Residues count along the entry.
UniProt P06276, 29-602: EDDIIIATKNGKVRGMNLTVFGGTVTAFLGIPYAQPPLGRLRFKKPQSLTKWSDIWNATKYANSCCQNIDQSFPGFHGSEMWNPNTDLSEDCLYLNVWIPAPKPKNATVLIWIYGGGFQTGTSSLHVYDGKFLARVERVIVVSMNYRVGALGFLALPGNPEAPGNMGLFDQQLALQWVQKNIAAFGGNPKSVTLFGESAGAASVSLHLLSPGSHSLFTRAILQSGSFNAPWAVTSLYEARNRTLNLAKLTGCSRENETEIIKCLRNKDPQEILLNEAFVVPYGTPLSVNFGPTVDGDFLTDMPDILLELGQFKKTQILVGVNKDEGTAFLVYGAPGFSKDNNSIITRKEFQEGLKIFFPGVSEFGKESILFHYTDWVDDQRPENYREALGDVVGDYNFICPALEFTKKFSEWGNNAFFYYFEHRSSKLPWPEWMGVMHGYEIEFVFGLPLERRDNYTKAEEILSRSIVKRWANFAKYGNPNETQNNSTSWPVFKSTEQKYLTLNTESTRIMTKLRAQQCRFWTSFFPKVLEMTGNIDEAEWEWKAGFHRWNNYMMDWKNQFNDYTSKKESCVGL

Target: BuChE (Homo sapiens, UniProt P06276)
Experiment: biochemical

## CN(C)Cc1ccc(CSCCN2C(=O)c3cccc([N+](=O)[O-])c3C2=O)o1 [Compound 30]
  IC50: > 50 µM
